Reference: PubChem BioAssay AID743255 (National Center for Advancing Translational Sciences (NCATS), 2014)
About 910 (0.23%) of roughly 390,000 compounds were called active. The inconclusive results got no clear call from the source; some entries with a clear call stand among them for comparison. Calls follow the shape of the dose curve; as a rule, active = well fitted inhibition curve with a large enough effect; inconclusive = small, poorly fitted or top-dose-only effect; inactive = no such curve, though single readings can be large or run the other way. Potencies of inconclusive entries are doubtful fits and often do not repeat.

Sequences of proteins named here, by UniProt entry; tags and fusion partners are left off. A change or cut given only in a name is not applied to a line headed by its entry.
UniProt O94782: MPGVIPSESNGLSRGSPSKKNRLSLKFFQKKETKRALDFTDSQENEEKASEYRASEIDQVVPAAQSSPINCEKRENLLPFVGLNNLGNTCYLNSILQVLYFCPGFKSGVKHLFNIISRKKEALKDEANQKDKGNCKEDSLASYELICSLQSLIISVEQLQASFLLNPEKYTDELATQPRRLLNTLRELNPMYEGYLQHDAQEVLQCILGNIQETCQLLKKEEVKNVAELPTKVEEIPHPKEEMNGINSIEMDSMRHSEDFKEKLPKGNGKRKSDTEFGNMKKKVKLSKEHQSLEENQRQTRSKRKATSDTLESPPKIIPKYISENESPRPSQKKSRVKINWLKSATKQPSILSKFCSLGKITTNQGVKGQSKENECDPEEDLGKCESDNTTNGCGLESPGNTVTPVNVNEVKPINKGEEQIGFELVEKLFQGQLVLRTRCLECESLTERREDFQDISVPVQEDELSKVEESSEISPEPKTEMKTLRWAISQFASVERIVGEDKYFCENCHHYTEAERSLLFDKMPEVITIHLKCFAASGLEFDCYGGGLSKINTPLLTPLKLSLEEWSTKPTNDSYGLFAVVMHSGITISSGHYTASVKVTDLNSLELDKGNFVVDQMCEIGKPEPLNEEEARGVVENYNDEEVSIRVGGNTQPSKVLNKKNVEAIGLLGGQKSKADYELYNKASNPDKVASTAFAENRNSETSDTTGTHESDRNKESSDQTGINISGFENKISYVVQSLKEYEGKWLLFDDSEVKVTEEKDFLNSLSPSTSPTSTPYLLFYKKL

Biological target: Ubiquitin carboxyl-terminal hydrolase 1 (Homo sapiens) (UniProt O94782)
Assay: Inhibitors of USP1/UAF1: Primary Screen; also: nearly all actives have a fitted effect of over 60% in size
Conditions: recombinant USP1/UAF1, Ub-Rhodamine cleavage fluorescence; activity change, negative = inhibition: at 57.1 µM (top of the series)
Procedure, shortened: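 USP1/UAF1 complex at 1 nM was preincubated with compound for 15 min at room temperature, then Ub-Rho substrate (150nM final) was added. Fluorescence (480/540 nm) was read kinetically, 6 reads every 60 seconds.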
% is scaled to controls: 0 for no effect and ±100 for the full control effect; potency is read from the fitted curve at half-maximal effect.

Potency, inactive:
O=C(CSCc1cccc(F)c1)NCc1ccccc1

Potency, inconclusive:
CC(=O)Nc1ccc(NC(=O)C(C)OC(=O)CC23CC4CC(CC(Br)(C4)C2)C3)cc1 (centres undefined) 25.1 µM [inhibitor, partial curve], Cc1cc(Cl)ccc1NNC(=O)CCc1ccccc1 44.7 µM [inhibitor, partial curve, poor fit], CCCCN(C)c1c(N2CCC(C(=O)OCC)CC2)c(=O)c1=O 0.355 µM [inhibitor, full curve, poor fit], Nc1ccc2nn(-c3cccc4ccccc34)nc2c1 25.1 µM [inhibitor, partial curve], CCc1ccccc1NNC(=O)c1snnc1C 44.7 µM [inhibitor, partial curve], Cc1nc(Oc2ccc(F)cc2Cl)c2oc3ccccc3c2n1 50.1 µM [inhibitor, partial curve, poor fit], Cn1cnc2c(cnn2C)c1=O 0.562 µM [inhibitor, full curve, poor fit], CC1CCN(C(=O)c2ncn3c2c(=O)[nH]c2ccc(Br)cc23)CC1 0.282 µM [inhibitor, full curve, poor fit], Fc1ccc(Nc2c3c(nc4ccccc24)CCC3)cc1 398 µM [inhibitor, partial curve, poor fit], Cc1ccc2nc(/C(C#N)=C\c3ccc(N4CCCCC4)c([N+](=O)[O-])c3)[nH]c2c1 8.91 µM [inhibitor, full curve], CCN(CC)C(=O)C1CCCN(C(=O)Nc2ccc3nsnc3c2)C1 (centres undefined) 35.5 µM [inhibitor, partial curve, poor fit], O=C(c1ccc(Cl)nc1)c1cccs1 44.7 µM [inhibitor, partial curve, poor fit], N#CCc1cnc2ccccc2n1 20 µM [inhibitor, partial curve], CC(NC(=O)c1nn(C)c(=O)c2ccccc12)c1ccc(F)cc1 (centres undefined) 35.5 µM [inhibitor, partial curve, poor fit]

Potency, active:
CN1CCc2c(sc3c2C(=O)NC(c2ccc(OC(=O)c4ccc(C(C)(C)C)cc4)cc2)N3)C1 (centres undefined) 31.6 µM

Activity change, negative = inhibition, inactive:
Cc1ccc(NC(=O)Nc2ccc3snnc3c2)cc1C -26.7%, CCc1ccc(CN(Cc2ccco2)c2cnc(S(C)(=O)=O)nc2C(=O)Nc2ccccc2Cl)cc1 -1.68%, CCc1cccc(C)c1NC(=O)Cn1ccn(-c2cccc(OC)c2)c(=O)c1=O -12.9%
